Some of these results come from one statement about several compounds together.
Legend:
[1] = test system: Staphylococcus aureus ATCC49951; assay: MIC against Staphylococcus aureus ATCC49951 (Agar Dilution or Microdilution Test, CLSI M7-A7); type: cell-based
[2] = test system: Streptococcus pneumoniae ATCC49619; assay: MIC against Streptococcus pneumoniae ATCC49619 (Agar Dilution or Microdilution Test, CLSI M7-A7); type: cell-based

For “14-O-{[(1R, 2R, 4R)4-Amino-2-hydroxy-cyclohexylsulfanyl]-acetyl}-mutilin hydrochloride+(1S, 2S, 4S) diastereomer hydrochloride [Example 1]”, the MIC [1] was no more than 2 µg/mL and the MIC [2] was no more than 2 µg/mL.

Reference: patent US20090118366A1, “ORGANIC COMPOUNDS” (Nabriva Therapeutics Forschungs GmbH, priority 2007, published 2009)
